28 sequences from PubChem BioAssay AID1347423 (Functional Genomics Laboratory (NCATS/FGL), 2020) can be followed below.

The campaign covered roughly 52,000 sequences. About 210 (0.4%) were called active.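 How the source made its calls: active means gene whose silencing raises cell survival under the drug, median off-target-corrected z-score across its silencing RNAs 2 or more; inactive means the rest.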 Some of the results follow.

A short description of this test: Resistance to Poly (ADP-Ribose) Polymerase inhibitor: Gene Identification via Genome-wide siRNA Screen. Particulars: mouse BRCA2 R2336H ES cells, olaparib, CellTiter-Glo viability; active compounds read high. Summed up: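 Mouse BRCA2 R2336H ES cells were reverse-transfected with siRNA (20 nM final), treated at 48 h with 500 nM olaparib, and read by CellTiter-Glo after 72 h. Scores: MAD-based z per siRNA, median per gene, seed off-target correction.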
(In general: Cellular ATP, detected with luciferase, serves as a proxy for viable cell number.)
As for GCCAUUCACUUAAUUCAGUTT against Hist1h2ae, the z-score was inactive: 0.663.
Under GGGAGAUGGACAAGGUUACTT against AJ554213 stands inactive: -0.609; under “GGAGAAUGUGUAGCUGUGATT against 9230102I19Rik”, inactive: -1.59; under GCCACUGGAGUAUAGCCAGTT against Pcnxl3, inactive: 0.527.
As for “GGGAACUGUUCAAAAAGACTT against D1Bwg0212e”, the z-score is inactive: -0.0995.
Under “GGUAUUUAGAAACAUCAGUTT against 5031439A09Rik” stands inactive: 0.562.
Consider “GGAGAUCUGCCAGUGGAAATT against 2010319C14Rik”, for which the z-score is inactive: -0.175.
To GGGAGAGUCAAAAAAAGAUTT against Khdrbs1 belongs active: 2.83.
To “UCGAUAGCCUCAAUCAGCATT against A530094I17Rik” belongs inactive: -0.369; to CUGAAACAUCCGUACACUCTT against Svs3, inactive: -0.95.
To GGUUUACGAAUUCUAUCCATT against AI841794 belongs inactive: 2.32; to GCUUUUGAUCGCAAUACAGTT against Spag9, inactive: 0.0872; to CGAAGUGACUGGAAAAAAATT against Wbp2, inactive: -1.37.
For AGUGUAACUGCAGAAGCCUTT against Olfr207, the z-score was inactive: 1.07.
Turning to GGAACACCGAACAUAAAUATT against Gm610, the z-score was inactive: -0.526.
With GGAACUGUUUGACAGUGAGTT against Pex19, the z-score is inactive: -1.84.
To GUGAAGAAAGUCAUCAAGATT against Olfr1506 belongs inactive: 1.78.
For the sequence “GGAGUGCACUGCAUCAUGUTT against 2810417J12Rik”, the z-score was inactive: 0.846.
Turning to “GGUUUUUAAGUGAUCCUUUTT against 6030443O07Rik”, the z-score is inactive: 0.277.
To GGAUUUUGUUCUUCAUCCATT against Nedd4 belongs inactive: 0.00914; to GCCAUAAUAAUCAAUGUGATT against Galm, inactive: 0.0141; to CAGCAUCUUUGAUUGUCUGTT against Tssc4, inactive: 0.302.
To “GCACAUUUAACCAAAAAGCTT against 2310011G06Rik” belongs inactive: 0.148; to “GUGAAGACAUCAGCAGACUTT against 0610012D14Rik”, inactive: -1.49.
To “GGUACAAACGUGUAGUAUCTT against E130306I01Rik” belongs inactive: 1.01.
Take GGUAACAAGAGGUCUAGCATT against P2ry1: the z-score is inactive: 1.22.
To “GCAGUAAAAUGACAUUUGGTT against 1700027J05Rik” belongs inactive: -0.144; to “CCCUUGUACAAUAAUAAAGTT against 2010100O12Rik”, inactive: 1.27.
